In PubChem BioAssay AID504467 (National Center for Advancing Translational Sciences (NCATS), 2011):
Among all 330,000 compounds or so, about 7,700 (2.3%) were called active. The shares of active, inactive and inconclusive entries below differ from those in the screen. The call rests on the fitted dose curve; in most records, active means well fitted inhibition curve with a large enough effect; inconclusive means small, poorly fitted or top-dose-only effect, or effect the other way; inactive means flat fitted curve, though single readings scatter. A potency beside an inconclusive call is a rough fit, not a confirmed value.
On the % scale 0 is the no-effect control and ±100 the full control effect; potency means the concentration at half of the fitted maximal effect.

Assay: qHTS screen for small molecules that inhibit ELG1-dependent DNA repair in human embryonic kidney (HEK293T) cells expressing luciferase-tagged ELG1; further: nearly all actives have a fitted effect of over 55% in size
Settings: HEK293T ELG1-luciferase reporter, luminescence, 16 h, DNA damage induced by 5-fluorouridine; activity change, negative = inhibition: at 46.1 µM (top of the series)
How it was run: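 DMSO vehicle served as the neutral condition. Each well held 2,000 cells given 5-fluorouridine plus compound; after 16 hr at 37 °C/5% CO2, ONE-Glo was added and luciferase measured 30 min later.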
With `Cc1cccc(N(Cc2nnc3n2CCCCC3)C(=O)Nc2ccccc2)c1` the “activity change, negative = inhibition” value was inactive: -2.49%.
With `Cc1ccc(S(=O)(=O)N2CCCC2=O)c(C)c1N(C)S(C)(=O)=O` the “activity change, negative = inhibition” value was inactive: 7.31%.
For `C/C(=N\NC(=O)c1cc(-c2ccncc2)nc2ccccc12)c1ccc(OC(F)F)cc1`, the Potency was inconclusive: 29.1 µM [inhibitor, single point].
With `N#C/C(=C\c1ccc(C#N)cc1)C(=O)N1CCCC1` the Potency was inconclusive: 18.3 µM [activator, single point].
For `C/C(CC(=O)Nc1ccccn1)=N\NC(=O)C(=O)Nc1ccccc1C`, the “activity change, negative = inhibition” value was inactive: 2.22%.
With `Cc1cccc(C)c1NC1=NC(=S)N(c2ccc(C(=O)O)cc2)C12CCCCC2` the “activity change, negative = inhibition” value was inactive: -10.3%.
For `O=C(CSc1n[nH]c(-c2ccncc2)n1)NC1CCS(=O)(=O)C1` (configuration not stated), the “activity change, negative = inhibition” value was inactive: -5.44%.
With `Cc1ccccc1C(=O)NC(CC(C)C)C(=O)OCC(=O)c1c(N)n(C)c(=O)n(C)c1=O` (configuration not stated) the “activity change, negative = inhibition” value was inactive: 2.9%.
In the case of `COc1ccc(-c2cc(C(=O)Nc3ccc(Cl)cc3Cl)c3ccccc3n2)cc1OC`, the Potency is reported as inconclusive: 18.4 µM [inhibitor, partial curve].
In the case of `COc1ccc(N=C2SC(CC(=O)Nc3ccccc3)C(=O)N2Cc2ccco2)cc1` (configuration not stated), the Potency is reported as inconclusive: 32.6 µM [inhibitor, single point].
For `O=c1sc(/C=N/Nc2ccccc2)c(Cl)n1Cc1ccccc1`, the Potency was inconclusive: 16.4 µM [activator, partial curve].
In the case of `CC(=O)c1ccc([N+](=O)[O-])c(CS(=O)(=O)c2ccc(Cl)cc2)c1`, the “activity change, negative = inhibition” value is reported as inactive: 0.263%.
For `CCOc1ccc(C(C(=O)NC2CCCC2)N(Cc2ccccc2)C(=O)c2nsc(Cl)c2Cl)cc1` (configuration not stated), the Potency was inconclusive: 29.1 µM [inhibitor, single point].
In the case of `O=C(CSc1ccc(F)cc1)Nc1cccc(S(=O)(=O)N2CCOCC2)c1`, the “activity change, negative = inhibition” value is reported as inactive: -14%.
With `COC(=O)N1C(=O)[C@@](Cc2ccccc2)(c2ccccc2)N1C(=O)OC` the Potency was inconclusive: 18.3 µM [inhibitor, single point].
For `COc1ccccc1OCC(=O)Nc1ccc2c(c1)OCCO2`, the Potency was inconclusive: 16.4 µM [activator, partial curve].
For `O=C(CCCN1C(=O)/C(=C/c2ccccc2Cl)SC1=S)N1CCOCC1`, the Potency was inconclusive: 23.1 µM [inhibitor, single point].
For `CCN1C(=O)C(=O)N(CC(=O)N2CCC(C)Sc3ccccc32)C1=O` (configuration not stated), the “activity change, negative = inhibition” value was inactive: 6.64%.
With `CC1CC2=C(NC(=S)NC2c2ccccc2F)/C(=C/c2ccccc2F)C1` (configuration not stated) the “activity change, negative = inhibition” value was inactive: -6.9%.
In the case of `COc1ccc(NS(=O)(=O)c2ccc(Cl)c(NC(=O)c3ccccc3F)c2)cc1`, the Potency is reported as inconclusive: 20.6 µM [inhibitor, single point].
In the case of `Cc1ccc(C2=NS(=O)(=O)N(C)C(C(=O)Nc3cc(C)n(CC(=O)N4CCCCC4)n3)=C2)cc1`, the “activity change, negative = inhibition” value is reported as inactive: -6.25%.
For `CCOc1ccc(C(CC(=O)O)NC(=O)C23CC4CC(CC(C4)C2)C3)cc1` (configuration not stated), the Potency was inconclusive: 29.1 µM [activator, single point].
With `COc1ccc(N(CC(=O)N/N=C/c2ccc(OC)c(OC)c2)S(=O)(=O)c2ccccc2)cc1` the Potency was inconclusive: 29.1 µM [inhibitor, single point].
For `COC(=O)c1ccc(/C=C/c2c(-c3ccsc3)oc3ccc(N4CCOCC4)cc23)cc1`, the “activity change, negative = inhibition” value was inactive: -2.21%.
For `Clc1cccc(-c2nc(NCC3CCCO3)c3ccccc3n2)c1` (configuration not stated), the Potency was inconclusive: 18.3 µM [inhibitor, partial curve].
In the case of `COc1ccc(C(=O)Nc2cc(C)on2)cc1OC`, the “activity change, negative = inhibition” value is reported as inactive: 17.9%.
With `CCCCC[C@@H]1C=C(C(=O)O)[C@H](c2ccc3c(c2)OCO3)N1S(=O)(=O)c1ccc(C)cc1` the “activity change, negative = inhibition” value was inactive: -3.25%.
In the case of `Cc1cc(S(=O)(=O)Nc2cccnc2)c(C)s1`, the “activity change, negative = inhibition” value is reported as inactive: -9.73%.
In the case of `COc1ccc(-c2noc(CCC(N)=O)n2)cc1OC`, the Potency is reported as inconclusive: 9.2 µM [activator, partial curve, poor fit].
With `CCOC(=O)Cc1csc(NC(=O)c2ccc3ncsc3c2)n1` the Potency was inconclusive: 5.8 µM [activator, partial curve].
In the case of `COCC1CCN(C(=O)c2cc(COc3cc(C)c(Cl)c(C)c3)on2)C1` (configuration not stated), the Potency is reported as inconclusive: 20.6 µM [activator, partial curve].
In the case of `Cc1ccc(OCc2nnc(SCC(=O)c3ccccc3)n2-c2ccccc2)cc1`, the Potency is reported as active: 23.1 µM.
For `CCC(=O)NCc1cc(-c2nn(C)c(=O)c3ccccc23)ccc1OC`, the Potency was inconclusive: 29.1 µM [activator, single point].
In the case of `COc1ccccc1C(=O)Nc1nc(-c2ccc(S(=O)(=O)N3CCOCC3)cc2)cs1`, the Potency is reported as active: 5.17 µM.
With `CCC(=O)Nc1nonc1-c1nc2ccccc2n1CC(C)C` the Potency was inconclusive: 4.11 µM [inhibitor, partial curve].
In the case of `COc1ccc(N2CCN(Cc3nc4c(c(=O)n(C)c(=O)n4C)n3CCc3ccccc3)CC2)cc1`, the Potency is reported as inconclusive: 5.17 µM [inhibitor, single point].
In the case of `COc1cc2c(cc1OC)CN(Cc1cc(=O)oc3cc(C)c(Cl)cc13)CC2`, the “activity change, negative = inhibition” value is reported as inactive: -20.3%.
With `COc1cc([N+](=O)[O-])ccc1NC(=O)CN1CCc2cc(OC)c(OC)cc2C1` the Potency was inconclusive: 7.3 µM [inhibitor, single point].
In the case of `Cn1nnnc1SCc1ccc(C(=O)Nc2nccs2)cc1`, the Potency is reported as inconclusive: 11.6 µM [activator, partial curve].
In the case of `COc1cc2c(cc1OC)CN(CC(=O)Nc1ccccc1SC)CC2`, the Potency is reported as inconclusive: 16.4 µM [inhibitor, single point].
With `COc1ccc(N(C(=O)CNC(=O)c2ccco2)C(C(=O)NCC2CCCO2)c2ccc(OC)c(OC)c2)cc1` (configuration not stated) the “activity change, negative = inhibition” value was inactive: -15.3%.
For `COc1ccc(NC(=O)NC2CCCCCCC2)cc1OC`, the Potency was inconclusive: 20.6 µM [activator, single point].
With `CCN(CC)S(=O)(=O)c1ccc(N2CCOCC2)c(NC(=O)CC23CC4CC(CC(Br)(C4)C2)C3)c1` the Potency was active: 9.2 µM.
With `Cc1nc(SCc2nc3c(O)cccc3[nH]2)c2oc3ccccc3c2n1` the “activity change, negative = inhibition” value was inactive: -17.8%.
With `O=C(c1ccncc1)N1CCN(S(=O)(=O)c2ccc(OC(F)(F)F)cc2)CC1` the Potency was inconclusive: 29.1 µM [activator, single point].
With `N[C@@H](Cc1ccccc1)C(=O)N1CCOCC1` the Potency was inconclusive: 12.6 µM [activator, single point].
In the case of `CSc1ccccc1NC(=O)c1cc(-c2cccnc2)nc2ccc(Br)cc12`, the Potency is reported as active: 23.1 µM.
In the case of `O=C(CNC(=O)C12CC3CC(CC(C3)C1)C2)N1CCN(S(=O)(=O)/C=C/c2ccccc2)CC1`, the Potency is reported as inconclusive: 18.4 µM [inhibitor, single point].
In the case of `Cc1cc(C)c(OCCNC(=O)c2ccccc2Sc2ccccc2C#N)c(C)c1`, the Potency is reported as inconclusive: 29.1 µM [inhibitor, single point].
With `N#Cc1ccc(OCC(=O)NCCc2ccccn2)cc1` the Potency was inconclusive: 23.1 µM [activator, single point].
With `CCCc1cc2c(cc1NS(=O)(=O)c1ccc(CCNC(C)=O)cc1)OCO2` the “activity change, negative = inhibition” value was inactive: -0.86%.
In the case of `N#Cc1cnc(Sc2ccccc2)nc1`, the Potency is reported as inconclusive: 29.1 µM [activator, single point].
With `Cc1nc(-c2cccc(S(=O)(=O)N3CCCC(C)C3)c2)cs1` (configuration not stated) the “activity change, negative = inhibition” value was inactive: 8.5%.
For `CCCOc1ccc(C(=O)NC(=S)Nc2nc3ccccc3s2)cc1`, the Potency was inconclusive: 6.51 µM [activator, partial curve, poor fit].
For `COc1ccc(/C=C2\C(=O)ON=C2c2ccccc2)cc1`, the Potency was inconclusive: 29.1 µM [activator, single point].
In the case of `Cc1nc2ccccn2c1-c1ccnn1S(=O)(=O)c1ccc(F)cc1`, the Potency is reported as active: 18.3 µM.
For `Cc1cc(OCC(=O)Nc2ccccc2C(N)=O)c2c(C)cc(=O)oc2c1`, the Potency was active: 3.66 µM.
For `CN(c1ccccc1)S(=O)(=O)c1cccc(C(=O)OCC(=O)NCCCN2CCCC2=O)c1`, the “activity change, negative = inhibition” value was inactive: 4.52%.
In the case of `CCN(CC)c1cc(C)c2cc(NC(=O)c3ccccc3OC)ccc2n1`, the Potency is reported as inconclusive: 29.1 µM [inhibitor, single point].
In the case of `CCSc1nc(-c2ccccc2)c(C#N)c(=O)[nH]1`, the “activity change, negative = inhibition” value is reported as inactive: 21.6%.
For `N#C/C(=C\c1ccc([N+](=O)[O-])cc1)c1ccccn1`, the Potency was inconclusive: 2.91 µM [activator, full curve].
For `CCn1nc(NC(=O)C(C)C)c2cc3cccc(C)c3nc21`, the “activity change, negative = inhibition” value was inactive: 13.2%.
For `O=C(COC(=O)CCc1nc2ccccc2s1)Nc1cccc(S(=O)(=O)N2CCOCC2)c1`, the Potency was inconclusive: 14.6 µM [activator, partial curve].
In the case of `COc1ccccc1CCN1C(=S)NC(C)(C)CC1(C)O` (configuration not stated), the Potency is reported as inconclusive: 32.6 µM [inhibitor, single point].
In the case of `CSc1ccccc1NC(=O)CSc1nnnn1-c1ccccc1SC`, the Potency is reported as inconclusive: 29.1 µM [inhibitor, single point].
In the case of `O=C(Nc1nc(-c2cccs2)cs1)c1ccc(S(=O)(=O)N2CCCCC2)cc1`, the Potency is reported as inconclusive: 18.4 µM [inhibitor, single point].
For `CN(CC(=O)Nc1cccc(F)c1)C(=O)/C=C/c1cn(Cc2ccccc2)nc1-c1cccnc1`, the Potency was inconclusive: 18.3 µM [inhibitor, partial curve].
With `O=C(NCCc1ccccc1)c1c(F)c(F)c(F)c(F)c1F` the Potency was inconclusive: 20.6 µM [activator, partial curve, poor fit].
In the case of `Cc1ccc(N2C(=O)CC(C)CC2=O)cc1`, the “activity change, negative = inhibition” value is reported as inactive: 1.96%.
For `CCOCCCN(C(=O)Cn1nnc(-c2ccc(C)o2)n1)C(C(=O)NC1CCCC1)c1ccco1` (configuration not stated), the “activity change, negative = inhibition” value was inactive: 4.54%.
With `CC1CC1C(=O)OCC(=O)Nc1cccc([N+](=O)[O-])c1` (configuration not stated) the “activity change, negative = inhibition” value was inactive: 8.51%.
For `O=S(=O)(NC1CCCCC1N1CCCCC1)c1ccccc1` (configuration not stated), the Potency was inconclusive: 29.1 µM [activator, partial curve, poor fit].
